PubChem BioAssay AID1259425 – University of Nebraska Medical Center – 2018

- Aim: 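Compare each knockdown with KSR1 silencing using changes in marker transcripts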 (primary screen)
- Cells: HCT116 human colon cancer cells
- Reagents: siRNA pool against human genes, 50 nM siRNA
- Measured: 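After 50 nM siRNA pool, branched-DNA assay measures six marker transcripts per well, minus blank, normalised to the geometric mean of two housekeeping transcripts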
- Reading the numbers: BNIP3L mRNA: higher = more BNIP3L transcript after knockdown
This is an unselected part of about 14,000 deposited reagents. A reagent listed more than once was tested more than once; the source does not tell the runs apart. Further read-outs or replicates are left out here. Not given: the time to read-out.

The opening 2 entries as a preview:
Gene | BNIP3L mRNA, set 1
ORC5 | 0.102
SPMIP6 | 0.115

The listing, repeating the preview:
Gene | BNIP3L mRNA, set 1
ORC5 | 0.102
SPMIP6 | 0.115
CYREN | 0.085
GNPNAT1 | 0.093
UGT2B4 | 0.0802
PICALM | 0.0681
FGFBP2 | 0.27
USP12 | 0.0533
FAS | 0.0982
DDX6 | 0.155
PTPRD | 0.0675
INMT | 0.165
SPON1 | 0.0545
DCUN1D4 | 0.0829
IL10 | 0.0646
RHOV | 0.114
PGS1 | 0.208
RUNX2 | 0.0814
FSCN3 | 0.097
AKIRIN2 | 0.121
LRFN3 | 0.109
PTP4A3 | 0.0712
NLGN1 | 0.0848
SLC30A5 | 0.327
NPHP4 | 0.112
SLURP1 | 0.0751
EBAG9 | 0.132
SMAD1 | 0.249
SMAD1 | 0.234
HLA-DOB | 0.0645
IFNK | 0.281
ARHGEF7 | 0.0697
MTMR7 | 0.0277
TSPAN15 | 0.0346
BPI | 0.125
ST13 | 0.0546
HACL1 | 0.0721
SUCLG1 | 0.212
ARHGEF5 | 0.172
RDH5 | 0.131
LYAR | 0.093
EIF4ENIF1 | 0.15
CHAC1 | 0.102
AP3M2 | 0.151
ETNK1 | 0.0644
C1orf94 | 0.291
HUS1B | 0.108
SMOC2 | 0.075
ACTN2 | 0.121
OGFOD2 | 0.112
